Experimental findings from article PMC6873584 are described below.

Chains of the proteins cited; added tags and fusions are not shown.
UniProt P40763: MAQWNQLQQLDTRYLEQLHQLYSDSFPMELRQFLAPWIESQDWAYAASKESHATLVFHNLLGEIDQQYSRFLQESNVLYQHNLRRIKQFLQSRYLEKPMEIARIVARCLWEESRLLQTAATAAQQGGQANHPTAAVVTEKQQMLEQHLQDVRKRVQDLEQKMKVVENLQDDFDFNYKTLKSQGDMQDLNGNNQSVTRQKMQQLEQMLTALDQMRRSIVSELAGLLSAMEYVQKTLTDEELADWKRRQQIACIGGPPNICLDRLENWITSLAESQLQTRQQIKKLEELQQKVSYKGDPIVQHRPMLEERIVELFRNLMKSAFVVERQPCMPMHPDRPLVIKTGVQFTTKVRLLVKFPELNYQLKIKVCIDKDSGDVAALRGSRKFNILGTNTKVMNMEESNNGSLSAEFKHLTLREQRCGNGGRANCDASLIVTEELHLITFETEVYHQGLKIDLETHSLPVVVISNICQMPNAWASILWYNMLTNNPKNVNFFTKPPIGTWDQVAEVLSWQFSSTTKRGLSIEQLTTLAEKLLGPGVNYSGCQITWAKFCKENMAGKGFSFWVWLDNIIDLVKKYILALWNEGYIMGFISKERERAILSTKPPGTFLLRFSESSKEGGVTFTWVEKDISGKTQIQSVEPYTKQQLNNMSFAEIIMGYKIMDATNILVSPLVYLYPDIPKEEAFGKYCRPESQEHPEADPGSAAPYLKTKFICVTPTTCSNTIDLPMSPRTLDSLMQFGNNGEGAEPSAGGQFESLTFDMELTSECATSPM

No constants are given. Whether binding was seen depends on the method and setting. In cells and extracts the contact can be indirect. Some results given as binding are weak or reduced against the parent protein; the word gives no strength.

For this experiment, the target named is STAT3 (human (endogenous in Bel-7404)) (UniProt P40763). The experiment can be described thus: co-IP; total lysates from Bel-7404 cells, immunoprecipitation with STAT3 antibody, western blotting with PRRX1 antibody; lysis buffer 50 mM HEPES pH 7.5, 150 mM NaCl, 1 mM EDTA, 0.5% Nonidet P-40.

Regarding “paired related homeobox 1 (Prrx1) (from UniProt P54821-1 1-245)”, the binding entry is reported as “binds”.
